{
  "sequences": {"note": "Chains of the proteins cited; added tags and fusions are not shown. Lines headed by an entry give the natural chain unless they say otherwise; changes in a name come on top.", "UniProt Q96AP0": "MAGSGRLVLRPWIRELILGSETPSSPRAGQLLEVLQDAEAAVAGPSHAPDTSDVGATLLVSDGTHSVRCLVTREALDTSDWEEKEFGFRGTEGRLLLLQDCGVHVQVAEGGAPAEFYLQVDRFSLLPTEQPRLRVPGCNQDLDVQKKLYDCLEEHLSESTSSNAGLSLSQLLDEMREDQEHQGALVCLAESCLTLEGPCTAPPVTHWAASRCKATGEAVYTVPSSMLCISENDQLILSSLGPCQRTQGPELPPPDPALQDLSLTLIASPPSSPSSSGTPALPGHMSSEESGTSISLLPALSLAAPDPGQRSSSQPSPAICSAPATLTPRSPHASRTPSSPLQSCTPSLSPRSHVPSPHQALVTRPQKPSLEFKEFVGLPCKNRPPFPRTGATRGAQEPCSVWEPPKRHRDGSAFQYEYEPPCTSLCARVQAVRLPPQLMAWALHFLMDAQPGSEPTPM", "UniProt Q92945": "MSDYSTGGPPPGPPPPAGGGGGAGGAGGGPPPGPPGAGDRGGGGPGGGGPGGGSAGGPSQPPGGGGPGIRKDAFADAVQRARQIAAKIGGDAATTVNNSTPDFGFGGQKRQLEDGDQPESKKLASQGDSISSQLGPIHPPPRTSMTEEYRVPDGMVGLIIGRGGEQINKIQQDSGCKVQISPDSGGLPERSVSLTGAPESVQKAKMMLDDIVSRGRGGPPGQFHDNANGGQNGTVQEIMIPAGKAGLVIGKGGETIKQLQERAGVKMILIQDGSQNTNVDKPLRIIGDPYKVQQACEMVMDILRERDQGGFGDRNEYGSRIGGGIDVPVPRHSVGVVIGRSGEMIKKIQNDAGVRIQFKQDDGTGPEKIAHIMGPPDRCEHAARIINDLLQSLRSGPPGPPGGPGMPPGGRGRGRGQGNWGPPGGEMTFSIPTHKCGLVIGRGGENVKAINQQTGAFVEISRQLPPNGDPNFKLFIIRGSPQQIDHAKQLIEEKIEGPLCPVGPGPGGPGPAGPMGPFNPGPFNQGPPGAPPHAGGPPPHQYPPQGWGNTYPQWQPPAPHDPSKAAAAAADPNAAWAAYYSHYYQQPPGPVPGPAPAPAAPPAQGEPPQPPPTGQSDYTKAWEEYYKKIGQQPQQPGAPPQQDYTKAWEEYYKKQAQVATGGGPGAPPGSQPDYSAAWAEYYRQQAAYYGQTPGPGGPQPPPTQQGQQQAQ", "UniProt Q92879": "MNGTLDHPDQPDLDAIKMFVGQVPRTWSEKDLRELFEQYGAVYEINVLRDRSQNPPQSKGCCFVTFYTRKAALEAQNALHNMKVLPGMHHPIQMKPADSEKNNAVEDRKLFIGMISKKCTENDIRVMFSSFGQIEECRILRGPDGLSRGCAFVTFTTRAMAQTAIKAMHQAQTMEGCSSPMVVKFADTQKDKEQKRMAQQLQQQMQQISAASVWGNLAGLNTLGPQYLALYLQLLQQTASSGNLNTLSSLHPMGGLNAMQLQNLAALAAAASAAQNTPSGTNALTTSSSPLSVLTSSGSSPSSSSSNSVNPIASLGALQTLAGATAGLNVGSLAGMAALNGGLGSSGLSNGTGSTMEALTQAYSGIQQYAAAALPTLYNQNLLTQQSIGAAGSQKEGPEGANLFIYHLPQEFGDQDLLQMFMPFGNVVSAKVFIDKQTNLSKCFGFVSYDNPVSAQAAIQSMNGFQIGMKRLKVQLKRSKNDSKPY", "UniProt Q96EV2": "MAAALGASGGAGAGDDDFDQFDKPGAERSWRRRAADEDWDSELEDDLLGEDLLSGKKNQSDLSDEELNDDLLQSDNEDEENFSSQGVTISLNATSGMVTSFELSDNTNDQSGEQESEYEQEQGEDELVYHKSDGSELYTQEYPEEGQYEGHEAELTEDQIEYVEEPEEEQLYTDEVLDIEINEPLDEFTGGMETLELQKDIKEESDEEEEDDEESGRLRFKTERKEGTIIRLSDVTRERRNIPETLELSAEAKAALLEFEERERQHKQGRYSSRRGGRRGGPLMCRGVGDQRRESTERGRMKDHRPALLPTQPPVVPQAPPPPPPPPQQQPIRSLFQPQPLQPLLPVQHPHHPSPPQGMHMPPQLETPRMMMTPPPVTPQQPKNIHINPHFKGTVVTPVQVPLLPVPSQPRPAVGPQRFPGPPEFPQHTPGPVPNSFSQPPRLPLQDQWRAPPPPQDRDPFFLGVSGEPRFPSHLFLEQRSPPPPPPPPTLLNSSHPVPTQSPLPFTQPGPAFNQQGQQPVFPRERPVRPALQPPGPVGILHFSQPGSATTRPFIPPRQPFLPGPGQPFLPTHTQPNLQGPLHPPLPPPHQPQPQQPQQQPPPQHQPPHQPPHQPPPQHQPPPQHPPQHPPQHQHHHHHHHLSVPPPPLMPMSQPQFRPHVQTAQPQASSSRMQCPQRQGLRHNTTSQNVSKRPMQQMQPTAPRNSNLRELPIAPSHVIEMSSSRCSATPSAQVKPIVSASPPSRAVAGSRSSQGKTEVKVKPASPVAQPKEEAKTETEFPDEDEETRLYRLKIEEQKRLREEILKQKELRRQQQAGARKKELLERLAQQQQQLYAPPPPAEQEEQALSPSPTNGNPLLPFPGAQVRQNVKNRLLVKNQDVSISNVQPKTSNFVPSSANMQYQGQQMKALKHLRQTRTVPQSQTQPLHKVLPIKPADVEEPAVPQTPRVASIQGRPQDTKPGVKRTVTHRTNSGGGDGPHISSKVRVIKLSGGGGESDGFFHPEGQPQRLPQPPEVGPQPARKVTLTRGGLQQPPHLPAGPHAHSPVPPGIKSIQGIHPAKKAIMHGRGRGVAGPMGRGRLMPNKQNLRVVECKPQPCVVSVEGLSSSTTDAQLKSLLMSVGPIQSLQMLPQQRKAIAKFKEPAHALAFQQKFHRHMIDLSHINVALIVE", "UniProt Q92802": "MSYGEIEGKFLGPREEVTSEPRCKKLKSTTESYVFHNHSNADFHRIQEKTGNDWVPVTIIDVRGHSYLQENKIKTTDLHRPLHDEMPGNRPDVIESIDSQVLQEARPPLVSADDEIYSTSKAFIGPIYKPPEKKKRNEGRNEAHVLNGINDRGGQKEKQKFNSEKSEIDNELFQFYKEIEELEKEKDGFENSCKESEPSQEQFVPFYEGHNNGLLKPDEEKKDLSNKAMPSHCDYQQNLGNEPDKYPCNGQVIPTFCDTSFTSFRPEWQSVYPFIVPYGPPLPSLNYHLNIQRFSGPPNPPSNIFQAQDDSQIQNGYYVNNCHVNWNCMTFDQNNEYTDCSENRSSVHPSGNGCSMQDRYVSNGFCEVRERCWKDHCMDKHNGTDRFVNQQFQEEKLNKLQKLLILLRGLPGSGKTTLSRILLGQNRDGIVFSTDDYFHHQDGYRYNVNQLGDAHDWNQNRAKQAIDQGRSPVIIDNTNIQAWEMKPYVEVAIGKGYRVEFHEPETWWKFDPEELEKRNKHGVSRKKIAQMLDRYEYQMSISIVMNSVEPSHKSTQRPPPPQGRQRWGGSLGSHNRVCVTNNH", "UniProt Q96EE3": "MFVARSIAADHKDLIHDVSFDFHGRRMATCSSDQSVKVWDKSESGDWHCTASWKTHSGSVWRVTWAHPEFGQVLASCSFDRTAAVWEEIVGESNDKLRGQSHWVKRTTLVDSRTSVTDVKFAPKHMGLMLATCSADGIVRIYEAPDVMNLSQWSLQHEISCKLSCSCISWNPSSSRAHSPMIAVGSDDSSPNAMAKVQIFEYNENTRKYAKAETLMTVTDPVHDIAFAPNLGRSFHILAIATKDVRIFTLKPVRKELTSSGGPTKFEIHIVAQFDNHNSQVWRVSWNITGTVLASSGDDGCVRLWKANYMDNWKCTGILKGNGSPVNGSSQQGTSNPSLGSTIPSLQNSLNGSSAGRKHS", "UniProt Q92785, whole entry": "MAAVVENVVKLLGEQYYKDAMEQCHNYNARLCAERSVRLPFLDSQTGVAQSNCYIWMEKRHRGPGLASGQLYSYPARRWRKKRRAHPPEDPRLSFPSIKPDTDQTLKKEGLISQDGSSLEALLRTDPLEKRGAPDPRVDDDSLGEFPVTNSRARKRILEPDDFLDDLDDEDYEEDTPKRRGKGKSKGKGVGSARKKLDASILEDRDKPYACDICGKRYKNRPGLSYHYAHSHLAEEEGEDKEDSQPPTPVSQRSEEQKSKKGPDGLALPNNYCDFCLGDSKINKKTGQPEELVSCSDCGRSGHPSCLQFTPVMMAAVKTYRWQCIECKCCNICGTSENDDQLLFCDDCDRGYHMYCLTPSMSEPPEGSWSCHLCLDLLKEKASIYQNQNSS", "UniProt Q92738": "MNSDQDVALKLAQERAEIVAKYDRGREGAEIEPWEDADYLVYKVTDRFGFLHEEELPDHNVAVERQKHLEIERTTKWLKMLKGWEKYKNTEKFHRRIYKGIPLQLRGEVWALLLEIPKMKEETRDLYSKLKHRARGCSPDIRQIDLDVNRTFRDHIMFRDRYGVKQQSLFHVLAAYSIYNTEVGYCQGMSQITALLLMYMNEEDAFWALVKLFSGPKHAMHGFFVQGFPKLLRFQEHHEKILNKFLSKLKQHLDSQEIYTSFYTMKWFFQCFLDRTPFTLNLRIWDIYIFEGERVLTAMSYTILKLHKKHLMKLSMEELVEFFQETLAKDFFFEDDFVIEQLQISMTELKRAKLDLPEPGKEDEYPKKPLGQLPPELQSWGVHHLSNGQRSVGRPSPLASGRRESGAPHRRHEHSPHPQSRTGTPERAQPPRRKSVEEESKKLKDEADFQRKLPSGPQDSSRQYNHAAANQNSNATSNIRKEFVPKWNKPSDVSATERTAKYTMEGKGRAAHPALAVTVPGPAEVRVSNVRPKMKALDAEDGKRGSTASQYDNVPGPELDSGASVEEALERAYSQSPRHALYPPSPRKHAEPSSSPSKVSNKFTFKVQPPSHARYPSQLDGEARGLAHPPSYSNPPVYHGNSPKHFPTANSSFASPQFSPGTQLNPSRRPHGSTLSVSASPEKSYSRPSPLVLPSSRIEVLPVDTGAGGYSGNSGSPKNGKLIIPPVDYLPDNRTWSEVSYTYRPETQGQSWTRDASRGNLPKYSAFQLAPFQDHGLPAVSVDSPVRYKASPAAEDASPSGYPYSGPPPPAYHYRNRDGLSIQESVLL", "UniProt Q96DN6": "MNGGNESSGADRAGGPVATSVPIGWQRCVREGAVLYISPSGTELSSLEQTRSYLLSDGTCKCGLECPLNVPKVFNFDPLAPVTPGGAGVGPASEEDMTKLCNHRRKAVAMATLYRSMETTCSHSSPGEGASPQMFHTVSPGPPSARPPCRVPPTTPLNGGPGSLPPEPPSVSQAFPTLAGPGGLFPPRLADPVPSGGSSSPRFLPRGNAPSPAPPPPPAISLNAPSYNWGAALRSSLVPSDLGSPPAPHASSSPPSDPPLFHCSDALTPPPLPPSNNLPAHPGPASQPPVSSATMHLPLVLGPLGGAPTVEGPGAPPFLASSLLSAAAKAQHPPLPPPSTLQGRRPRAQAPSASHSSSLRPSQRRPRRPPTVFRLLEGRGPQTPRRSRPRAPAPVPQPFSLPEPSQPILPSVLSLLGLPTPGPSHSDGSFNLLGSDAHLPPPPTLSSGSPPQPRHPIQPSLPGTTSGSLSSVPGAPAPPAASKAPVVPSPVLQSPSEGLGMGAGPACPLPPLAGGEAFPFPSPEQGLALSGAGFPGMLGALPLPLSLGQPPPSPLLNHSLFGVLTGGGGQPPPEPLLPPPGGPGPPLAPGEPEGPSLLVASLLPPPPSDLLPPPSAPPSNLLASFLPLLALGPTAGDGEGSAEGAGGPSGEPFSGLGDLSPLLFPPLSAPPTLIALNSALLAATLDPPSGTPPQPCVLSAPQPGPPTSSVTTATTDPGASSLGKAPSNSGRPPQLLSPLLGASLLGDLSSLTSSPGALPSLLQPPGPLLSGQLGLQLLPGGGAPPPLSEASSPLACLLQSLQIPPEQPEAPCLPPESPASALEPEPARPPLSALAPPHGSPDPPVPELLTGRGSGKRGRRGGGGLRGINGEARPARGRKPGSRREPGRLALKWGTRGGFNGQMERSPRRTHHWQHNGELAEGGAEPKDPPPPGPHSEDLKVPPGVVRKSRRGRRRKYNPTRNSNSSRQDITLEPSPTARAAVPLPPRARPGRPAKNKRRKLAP", "UniProt Q96A49": "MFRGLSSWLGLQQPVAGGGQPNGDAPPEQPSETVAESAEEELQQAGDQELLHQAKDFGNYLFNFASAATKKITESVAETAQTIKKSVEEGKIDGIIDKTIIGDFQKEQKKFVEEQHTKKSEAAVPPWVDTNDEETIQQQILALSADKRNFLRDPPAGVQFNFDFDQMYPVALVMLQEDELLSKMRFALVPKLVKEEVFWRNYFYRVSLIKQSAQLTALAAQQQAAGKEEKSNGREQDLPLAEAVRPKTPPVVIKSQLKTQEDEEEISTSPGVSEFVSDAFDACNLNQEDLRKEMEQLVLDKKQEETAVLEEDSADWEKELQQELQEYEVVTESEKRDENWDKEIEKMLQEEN", "UniProt Q96EN9": "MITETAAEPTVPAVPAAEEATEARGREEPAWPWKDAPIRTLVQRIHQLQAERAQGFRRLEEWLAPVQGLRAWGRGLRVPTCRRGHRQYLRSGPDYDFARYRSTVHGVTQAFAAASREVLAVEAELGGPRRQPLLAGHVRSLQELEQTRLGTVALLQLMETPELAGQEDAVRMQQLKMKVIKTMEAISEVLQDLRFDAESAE"},
  "source": "the supplement of paper PMC12819154",
  "about": "“High-throughput peptide-centric local stability assay extends protein–ligand identification to membrane proteins, tissues and bacteria” (Nature Structural & Molecular Biology, 2025)",
  "note": "The other results are listed elsewhere or left out. Most values lie at the level of the controls, where differences are scatter.",
  "data": [
    {"compound": "Cc1nc(Nc2ncc(C(=O)Nc3c(C)cccc3Cl)s2)cc(N2CCN(CCO)CC2)n1 [dasatinib]", "assay": "log2 fold change of tryptic peptide abundance, ligand vs vehicle (limited proteolysis) (log2 ratio); higher = more trypsin-susceptible (destabilized)", "details": "ligand concentration: 5 uM; sample: K562 cleared lysate", "values": [
      {"target": "ACD (peptide sequence: LRVPGCNQDLDVQK, peptide start residue: 133) (UniProt Q96AP0)", "log2 fold change": -0.438},
      {"target": "RUNDC1 (peptide sequence: WAPVGAVAEAR, peptide start residue: 40) (UniProt Q96C34)", "log2 fold change": -0.276},
      {"target": "KHSRP (peptide sequence: MMLDDIVSR, peptide start residue: 206) (UniProt Q92945)", "log2 fold change": -0.132},
      {"target": "UniProt Q96EK5 (peptide sequence: AAHYCHSTLKR, peptide start residue: 227)", "log2 fold change": -0.684},
      {"target": "MRRF (peptide sequence: VPIPQVTR, peptide start residue: 180) (UniProt Q96E11)", "log2 fold change": 0.288},
      {"target": "JARID2 (peptide sequence: STSQPESVHKPQDSGK, peptide start residue: 526) (UniProt Q92833)", "log2 fold change": -0.322},
      {"target": "ELP4 (peptide sequence: KEFDEDVYNHKTPESNIK, peptide start residue: 140) (UniProt Q96EB1)", "log2 fold change": 0.3},
      {"target": "UniProt Q92879 (peptide sequence: MFVGQVPR, peptide start residue: 18)", "log2 fold change": -0.148},
      {"target": "MRPL24 (peptide sequence: LVDPMDRKPTEIEWR, peptide start residue: 122) (UniProt Q96A35)", "log2 fold change": -0.228},
      {"target": "C11orf24 (peptide sequence: GTSAAHLNSMEVTTEDTSR, peptide start residue: 68) (UniProt Q96F05)", "log2 fold change": -0.218},
      {"target": "RBM33 (peptide sequence: RNIPETLELSAEAK, peptide start residue: 240) (UniProt Q96EV2)", "log2 fold change": 0.315},
      {"target": "UniProt Q96B45 (peptide sequence: NMVLQEDAILHSEDSLR, peptide start residue: 55)", "log2 fold change": 0.257},
      {"target": "UniProt Q92802 (peptide sequence: STTESYVFHNHSNADFHR, peptide start residue: 28)", "log2 fold change": -0.301},
      {"target": "MRPS24 (peptide sequence: KGWLSLHTGNLDGEDHAAER, peptide start residue: 66) (UniProt Q96EL2)", "log2 fold change": -0.543},
      {"target": "SEH1L (peptide sequence: AHSPMIAVGSDDSSPNAMAK, peptide start residue: 177) (UniProt Q96EE3)", "log2 fold change": -0.518},
      {"target": "CLP1 (peptide sequence: TEVAYVSK, peptide start residue: 79) (UniProt Q92989)", "log2 fold change": -0.221},
      {"target": "NSUN4 (peptide sequence: ILHSYVPEEIRDGNQVR, peptide start residue: 216) (UniProt Q96CB9)", "log2 fold change": 0.26},
      {"target": "LSM10 (peptide sequence: DESVAHGR, peptide start residue: 35) (UniProt Q969L4)", "log2 fold change": 0.925},
      {"target": "DPF2 (peptide sequence: SGHPSCLQFTPVMMAAVK, peptide start residue: 301) (UniProt Q92785)", "log2 fold change": -0.54},
      {"target": "USP6NL (peptide sequence: KLPSGPQDSSR, peptide start residue: 452) (UniProt Q92738)", "log2 fold change": -0.387},
      {"target": "ARL8A (peptide sequence: LWDIGGQPR, peptide start residue: 69) (UniProt Q96BM9)", "log2 fold change": -0.0817},
      {"target": "MBD6 (peptide sequence: AQAPSASHSSSLRPSQR, peptide start residue: 348) (UniProt Q96DN6)", "log2 fold change": -0.289},
      {"target": "SYAP1 (peptide sequence: KITESVAETAQTIKK, peptide start residue: 71) (UniProt Q96A49)", "log2 fold change": -0.092},
      {"target": "REX1BD (peptide sequence: IHQLQAER, peptide start residue: 45) (UniProt Q96EN9)", "log2 fold change": 0.136},
      {"target": "HSPBAP1 (peptide sequence: INVVNPDLK, peptide start residue: 220) (UniProt Q96EW2)", "log2 fold change": -0.292},
      {"target": "SGK3 (peptide sequence: RAGLNEFIQNLVR, peptide start residue: 91) (UniProt Q96BR1)", "log2 fold change": 0.163}
    ]}
  ]
}
